Reference: the supplement of paper PMC12067093, “Discovery and optimisation of a covalent ligand for TRIM25 and its application to targeted protein ubiquitination” (Chemical Science, 2025)
Some of the results follow.

By UniProt entry, the sequences of proteins in these tests, tags left out. Where a name states a change or a piece, a line headed by the entry shows the natural chain unless it says otherwise.
UniProt P10768: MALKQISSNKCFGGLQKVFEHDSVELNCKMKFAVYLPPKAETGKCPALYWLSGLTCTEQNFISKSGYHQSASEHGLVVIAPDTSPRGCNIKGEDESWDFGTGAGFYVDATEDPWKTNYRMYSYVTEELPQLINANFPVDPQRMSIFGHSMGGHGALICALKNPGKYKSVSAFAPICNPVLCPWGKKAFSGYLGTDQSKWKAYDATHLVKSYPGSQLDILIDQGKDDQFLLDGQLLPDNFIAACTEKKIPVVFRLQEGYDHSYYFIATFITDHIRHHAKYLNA
UniProt Q01469, whole entry, looked up: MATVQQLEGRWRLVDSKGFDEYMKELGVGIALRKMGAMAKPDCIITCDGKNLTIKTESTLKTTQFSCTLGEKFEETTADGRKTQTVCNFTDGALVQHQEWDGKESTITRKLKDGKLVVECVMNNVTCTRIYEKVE
UniProt Q9BZQ8: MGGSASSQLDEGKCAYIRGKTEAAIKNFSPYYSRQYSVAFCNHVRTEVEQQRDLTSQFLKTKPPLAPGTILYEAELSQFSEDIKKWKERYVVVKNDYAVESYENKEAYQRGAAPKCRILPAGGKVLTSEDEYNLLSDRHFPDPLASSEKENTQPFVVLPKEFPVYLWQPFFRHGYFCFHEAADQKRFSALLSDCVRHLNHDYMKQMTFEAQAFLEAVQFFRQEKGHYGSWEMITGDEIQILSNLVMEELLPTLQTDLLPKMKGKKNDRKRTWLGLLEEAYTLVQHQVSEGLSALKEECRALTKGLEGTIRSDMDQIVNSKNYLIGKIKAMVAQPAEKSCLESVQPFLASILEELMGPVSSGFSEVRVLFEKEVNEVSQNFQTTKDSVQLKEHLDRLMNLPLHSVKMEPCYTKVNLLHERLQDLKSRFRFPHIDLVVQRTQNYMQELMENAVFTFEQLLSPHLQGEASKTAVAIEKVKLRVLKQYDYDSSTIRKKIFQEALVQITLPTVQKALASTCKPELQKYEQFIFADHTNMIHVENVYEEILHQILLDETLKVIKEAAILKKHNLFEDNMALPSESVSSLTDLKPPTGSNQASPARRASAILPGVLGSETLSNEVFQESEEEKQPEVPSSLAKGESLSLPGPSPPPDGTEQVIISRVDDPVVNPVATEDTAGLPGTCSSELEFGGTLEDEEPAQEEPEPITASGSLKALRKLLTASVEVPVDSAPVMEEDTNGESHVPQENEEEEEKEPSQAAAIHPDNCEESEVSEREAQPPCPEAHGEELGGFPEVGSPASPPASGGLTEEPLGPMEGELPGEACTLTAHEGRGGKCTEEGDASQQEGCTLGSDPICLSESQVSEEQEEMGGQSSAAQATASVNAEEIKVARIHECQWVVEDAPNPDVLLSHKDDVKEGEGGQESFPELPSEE
UniProt Q96EK7: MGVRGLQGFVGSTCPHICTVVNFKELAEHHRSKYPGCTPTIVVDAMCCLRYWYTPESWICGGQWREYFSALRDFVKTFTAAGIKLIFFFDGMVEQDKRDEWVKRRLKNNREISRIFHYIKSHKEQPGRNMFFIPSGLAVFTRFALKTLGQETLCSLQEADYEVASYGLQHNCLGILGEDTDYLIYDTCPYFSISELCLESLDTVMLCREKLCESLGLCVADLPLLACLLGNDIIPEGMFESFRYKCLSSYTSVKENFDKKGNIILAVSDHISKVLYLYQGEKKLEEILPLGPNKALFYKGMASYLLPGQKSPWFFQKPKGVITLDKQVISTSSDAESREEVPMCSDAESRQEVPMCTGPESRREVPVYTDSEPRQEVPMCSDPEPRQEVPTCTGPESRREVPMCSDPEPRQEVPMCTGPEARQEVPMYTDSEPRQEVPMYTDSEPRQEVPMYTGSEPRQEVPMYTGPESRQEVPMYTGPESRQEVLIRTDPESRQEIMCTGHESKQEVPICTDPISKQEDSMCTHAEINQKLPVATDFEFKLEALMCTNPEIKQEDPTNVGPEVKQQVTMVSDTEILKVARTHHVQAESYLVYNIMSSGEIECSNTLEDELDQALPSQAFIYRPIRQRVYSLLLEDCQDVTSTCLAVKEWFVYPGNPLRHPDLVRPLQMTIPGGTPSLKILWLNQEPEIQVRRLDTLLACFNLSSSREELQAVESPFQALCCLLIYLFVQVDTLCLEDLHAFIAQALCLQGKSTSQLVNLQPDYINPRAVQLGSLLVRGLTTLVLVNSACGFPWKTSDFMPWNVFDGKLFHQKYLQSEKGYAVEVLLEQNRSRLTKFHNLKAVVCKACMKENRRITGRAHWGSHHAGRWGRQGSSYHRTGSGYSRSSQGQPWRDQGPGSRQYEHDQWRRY
UniProt Q96HE7: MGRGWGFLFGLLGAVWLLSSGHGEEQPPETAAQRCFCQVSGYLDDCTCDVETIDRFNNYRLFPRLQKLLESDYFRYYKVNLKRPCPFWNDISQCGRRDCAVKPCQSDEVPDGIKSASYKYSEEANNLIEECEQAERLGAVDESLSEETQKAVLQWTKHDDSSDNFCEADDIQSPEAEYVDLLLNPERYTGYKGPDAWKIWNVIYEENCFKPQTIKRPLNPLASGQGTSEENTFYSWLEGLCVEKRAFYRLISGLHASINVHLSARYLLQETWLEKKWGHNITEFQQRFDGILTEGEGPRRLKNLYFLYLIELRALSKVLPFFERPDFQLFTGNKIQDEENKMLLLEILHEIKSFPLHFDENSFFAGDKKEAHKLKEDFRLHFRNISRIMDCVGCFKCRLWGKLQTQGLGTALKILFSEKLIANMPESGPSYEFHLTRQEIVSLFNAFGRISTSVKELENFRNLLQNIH
UniProt Q5RKV6, whole entry, looked up: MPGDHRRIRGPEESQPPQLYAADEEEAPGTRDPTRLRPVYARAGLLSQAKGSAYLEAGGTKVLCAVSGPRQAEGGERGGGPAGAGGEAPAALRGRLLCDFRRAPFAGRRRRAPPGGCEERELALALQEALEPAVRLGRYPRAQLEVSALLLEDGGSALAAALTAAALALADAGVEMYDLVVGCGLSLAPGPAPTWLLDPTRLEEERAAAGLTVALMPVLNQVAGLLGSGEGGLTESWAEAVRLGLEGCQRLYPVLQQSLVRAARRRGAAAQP
UniProt Q15910, whole entry, looked up: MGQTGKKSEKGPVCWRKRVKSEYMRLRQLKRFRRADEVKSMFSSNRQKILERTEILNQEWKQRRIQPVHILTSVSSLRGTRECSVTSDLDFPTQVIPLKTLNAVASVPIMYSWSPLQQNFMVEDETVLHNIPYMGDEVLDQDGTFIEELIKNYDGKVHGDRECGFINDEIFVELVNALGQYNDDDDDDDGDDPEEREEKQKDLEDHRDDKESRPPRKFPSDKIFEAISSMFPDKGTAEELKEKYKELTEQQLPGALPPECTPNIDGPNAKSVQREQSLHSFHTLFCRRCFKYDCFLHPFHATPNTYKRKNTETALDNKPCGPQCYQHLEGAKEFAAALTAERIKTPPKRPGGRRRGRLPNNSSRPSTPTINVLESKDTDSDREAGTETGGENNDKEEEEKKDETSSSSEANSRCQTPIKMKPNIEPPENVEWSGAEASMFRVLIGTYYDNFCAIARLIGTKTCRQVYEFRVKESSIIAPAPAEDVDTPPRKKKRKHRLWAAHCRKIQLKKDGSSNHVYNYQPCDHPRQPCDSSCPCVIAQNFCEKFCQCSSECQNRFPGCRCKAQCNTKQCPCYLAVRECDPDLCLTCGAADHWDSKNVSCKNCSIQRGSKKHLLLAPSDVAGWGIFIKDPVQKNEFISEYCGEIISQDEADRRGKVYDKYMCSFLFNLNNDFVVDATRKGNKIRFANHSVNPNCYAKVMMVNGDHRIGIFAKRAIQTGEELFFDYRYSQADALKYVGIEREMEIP
UniProt Q8IV48: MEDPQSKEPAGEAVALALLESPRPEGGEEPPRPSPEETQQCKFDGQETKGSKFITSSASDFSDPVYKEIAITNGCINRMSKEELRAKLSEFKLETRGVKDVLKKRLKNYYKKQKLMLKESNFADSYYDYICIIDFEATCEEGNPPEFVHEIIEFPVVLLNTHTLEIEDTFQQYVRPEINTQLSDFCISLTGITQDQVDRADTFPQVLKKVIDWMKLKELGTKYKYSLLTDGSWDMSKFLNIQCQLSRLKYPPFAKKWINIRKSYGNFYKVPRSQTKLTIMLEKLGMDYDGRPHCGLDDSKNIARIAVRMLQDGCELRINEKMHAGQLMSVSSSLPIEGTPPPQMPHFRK
UniProt Q8TAG9: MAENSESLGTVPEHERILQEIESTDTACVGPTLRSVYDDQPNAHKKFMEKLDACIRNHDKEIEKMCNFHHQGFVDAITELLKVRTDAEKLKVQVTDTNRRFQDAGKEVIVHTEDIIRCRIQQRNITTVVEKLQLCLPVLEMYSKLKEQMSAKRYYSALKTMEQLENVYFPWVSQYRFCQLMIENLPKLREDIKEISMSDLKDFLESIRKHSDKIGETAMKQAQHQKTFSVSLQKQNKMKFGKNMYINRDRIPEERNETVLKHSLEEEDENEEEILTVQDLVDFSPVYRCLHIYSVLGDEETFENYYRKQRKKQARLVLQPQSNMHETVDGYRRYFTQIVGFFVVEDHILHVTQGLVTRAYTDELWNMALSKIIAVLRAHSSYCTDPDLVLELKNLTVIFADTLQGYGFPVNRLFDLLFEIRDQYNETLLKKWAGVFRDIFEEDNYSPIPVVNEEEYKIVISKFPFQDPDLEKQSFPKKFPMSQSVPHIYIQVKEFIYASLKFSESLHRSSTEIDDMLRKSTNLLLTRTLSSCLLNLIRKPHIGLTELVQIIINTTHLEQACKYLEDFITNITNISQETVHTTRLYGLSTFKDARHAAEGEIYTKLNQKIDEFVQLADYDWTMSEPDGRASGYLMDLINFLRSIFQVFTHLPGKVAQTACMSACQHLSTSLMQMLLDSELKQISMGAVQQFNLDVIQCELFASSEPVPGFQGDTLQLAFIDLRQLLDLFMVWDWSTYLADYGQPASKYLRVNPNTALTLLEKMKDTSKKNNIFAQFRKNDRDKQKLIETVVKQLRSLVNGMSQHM
UniProt P11474: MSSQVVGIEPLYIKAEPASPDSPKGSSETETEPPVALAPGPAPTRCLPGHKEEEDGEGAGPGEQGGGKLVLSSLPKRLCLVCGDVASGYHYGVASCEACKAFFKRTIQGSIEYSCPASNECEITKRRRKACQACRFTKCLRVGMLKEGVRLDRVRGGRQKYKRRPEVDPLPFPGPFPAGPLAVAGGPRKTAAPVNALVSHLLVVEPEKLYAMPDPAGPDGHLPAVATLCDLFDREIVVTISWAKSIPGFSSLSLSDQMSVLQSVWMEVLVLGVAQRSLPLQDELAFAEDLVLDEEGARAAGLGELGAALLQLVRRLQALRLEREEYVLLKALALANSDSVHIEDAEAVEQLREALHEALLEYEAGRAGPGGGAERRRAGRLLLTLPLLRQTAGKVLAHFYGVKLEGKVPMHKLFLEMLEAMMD
UniProt Q06265, whole entry, looked up: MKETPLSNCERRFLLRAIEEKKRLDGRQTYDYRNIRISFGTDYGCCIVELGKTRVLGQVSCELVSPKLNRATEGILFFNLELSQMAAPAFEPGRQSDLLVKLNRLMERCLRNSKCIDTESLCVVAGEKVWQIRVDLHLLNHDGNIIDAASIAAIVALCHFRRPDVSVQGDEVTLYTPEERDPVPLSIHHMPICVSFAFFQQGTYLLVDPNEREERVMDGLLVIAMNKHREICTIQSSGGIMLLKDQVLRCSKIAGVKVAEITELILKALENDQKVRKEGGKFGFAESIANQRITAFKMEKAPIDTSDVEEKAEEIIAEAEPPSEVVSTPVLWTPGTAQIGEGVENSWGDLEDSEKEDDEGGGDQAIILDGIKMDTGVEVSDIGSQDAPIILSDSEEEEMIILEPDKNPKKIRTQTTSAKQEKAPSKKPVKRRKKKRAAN
UniProt Q9BYI3: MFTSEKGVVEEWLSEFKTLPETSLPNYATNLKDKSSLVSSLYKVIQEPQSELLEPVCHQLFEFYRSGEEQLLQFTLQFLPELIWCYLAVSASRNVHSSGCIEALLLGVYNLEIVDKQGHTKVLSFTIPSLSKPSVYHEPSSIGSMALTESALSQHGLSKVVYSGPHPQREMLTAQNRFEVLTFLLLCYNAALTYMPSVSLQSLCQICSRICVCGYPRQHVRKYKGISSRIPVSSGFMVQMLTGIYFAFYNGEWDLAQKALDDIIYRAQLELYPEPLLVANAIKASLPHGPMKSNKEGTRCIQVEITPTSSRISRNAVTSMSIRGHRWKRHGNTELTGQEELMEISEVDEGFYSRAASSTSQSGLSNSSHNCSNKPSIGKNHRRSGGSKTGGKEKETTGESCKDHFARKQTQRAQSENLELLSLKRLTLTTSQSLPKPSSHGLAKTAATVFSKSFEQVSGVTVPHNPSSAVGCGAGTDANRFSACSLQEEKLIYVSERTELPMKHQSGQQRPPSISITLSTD
UniProt P84090, whole entry, looked up: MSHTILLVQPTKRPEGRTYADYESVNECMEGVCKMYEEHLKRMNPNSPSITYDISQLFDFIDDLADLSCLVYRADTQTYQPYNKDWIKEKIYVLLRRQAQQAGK
UniProt Q9Y3B2, whole entry, looked up: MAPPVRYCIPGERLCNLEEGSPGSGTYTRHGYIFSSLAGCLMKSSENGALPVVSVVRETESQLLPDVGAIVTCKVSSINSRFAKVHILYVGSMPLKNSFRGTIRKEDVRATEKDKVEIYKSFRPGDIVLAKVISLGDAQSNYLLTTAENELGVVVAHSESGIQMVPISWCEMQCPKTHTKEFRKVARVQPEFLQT

Compound: Cc1cc(ccc1-c1ccccc1)C(=O)N1CCCN(CC1)C(=O)CCl [compound 10]
Assay: probe-labelled cysteine peptide fold change vs DMSO (competition) (log2 fold change); higher = less target engagement (more negative = stronger competition)
Settings: THP-1, incubation time: 4 h
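Note: competitive profiling in live THP-1 cells: cysteine peptides tagged with an iodoacetamide desthiobiotin (IA-DTB) probe, intensity after compound treatment relative to DMSO-treated cells.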

| Target | probe-labelled cysteine peptide fold change (10 µM) | probe-labelled cysteine peptide fold change (50 µM) |
| --- | --- | --- |
| ESYT1_Q9BSJ8_995_KLVSIVHGCR (UniProt Q9BSJ8) | -0.124 | 0.0558 |
| FAM111B_Q6SJ93_212_LCIYALK (UniProt Q6SJ93) | 0.0556 | -0.298 |
| FAM118A_Q9NWS6_55_SCIEAVIEAAEQLEVLHPGDVAEFR (UniProt Q9NWS6) | -0.0349 | 0.184 |
| ESD_P10768_176+181_SVSAFAPICNPVLCPWGK (UniProt P10768) | -0.00346 | -0.142 |
| EXOSC10_Q01780_555_IAEELPKEPQGIIACCNPVPPLVR (UniProt Q01780) | -0.144 | -1.17 |
| EXD2_Q9NVH0_133_ASPLSLLQMASPSGLCVLVR (UniProt Q9NVH0) | -0.275 | -0.277 |
| FABP5_Q01469_43_MGAMAKPDCIITCDGK (UniProt Q01469) | -0.103 | -0.36 |
| EXOC1_Q9NV70_36_NCFLCATVTTERPVQVK (UniProt Q9NV70) | 0.0396 | 0.0319 |
| EXOC1_Q9NV70_837_HLCEEENLLQVVWHSMQDEFIR (UniProt Q9NV70) | 0.321 | 0.405 |
| FAM129A_Q9BZQ8_763_EPSQAAAIHPDNCEESEVSER (UniProt Q9BZQ8) | -0.306 | 0.415 |
| FAM120B_Q96EK7_380_QEVPMCSDPEPR (UniProt Q96EK7) | -0.331 | -0.128 |
| ETV6_P41212_157_ILFSPFFHPGNSIHTQPEVILHQNHEEDNCVQR (UniProt P41212) | 0.249 | -0.091 |
| ERP44_Q9BS26_92_VDCDQHSDIAQR (UniProt Q9BS26) | 0.0139 | 0.419 |
| ERO1A_Q96HE7_99_RDCAVKPCQSDEVPDGIK (UniProt Q96HE7) | -0.0958 | -0.168 |
| EXOSC6_Q5RKV6_117_RAPPGGCEERELALALQEALEPAVR (UniProt Q5RKV6) | -0.569 | -1.04 |
| EZH2_Q15910_324_NTETALDNKPCGPQCYQHLEGAK (UniProt Q15910) | 0.251 | -0.196 |
| EXT2_Q93063_657_CPECTAIDGLSLDQTHMVER (UniProt Q93063) | -0.000977 | 0.0481 |
| ERI1_Q8IV48_75_EIAITNGCINR (UniProt Q8IV48) | -0.21 | -0.588 |
| EZH2_Q15910_588_ECDPDLCLTCGAADHWDSK (UniProt Q15910) | -0.0494 | 0.107 |
| ESD_P10768_28_VFEHDSVELNCK (UniProt P10768) | 0.217 | -0.124 |
| EXOSC5_Q9NQT4_102_NTCEAVVLGTLHPR (UniProt Q9NQT4) | 0.112 | 0.423 |

| Target | probe-labelled cysteine peptide fold change (10 µM) | probe-labelled cysteine peptide fold change (50 µM) |
| --- | --- | --- |
| EXOSC5_Q9NQT4_33_HFACEQNLLSRPDGSASFLQGDTSVLAGVYGPAEVK (UniProt Q9NQT4) | -0.0294 | 0.228 |
| ESD_P10768_11_CFGGLQK (UniProt P10768) | 0.0299 | -0.116 |
| FABP5_Q01469_43+47_MGAMAKPDCIITCDGK (UniProt Q01469) | -0.0376 | -0.51 |
| EVI5_O60447_479_LSEAESQCALK (UniProt O60447) | -0.223 | -0.131 |
| ERGIC3_Q9Y282_182_NPDTIEQCR (UniProt Q9Y282) | -0.124 | 0.064 |
| EXOC6_Q8TAG9_561_KPHIGLTELVQIIINTTHLEQACK (UniProt Q8TAG9) | 0.0168 | 0.367 |
| F2_P00734_564_GDACEGDSGGPFVMK (UniProt P00734) | -0.358 | -0.6 |
| ESRRA_P11474_46_CLPGHKEEEDGEGAGPGEQGGGK (UniProt P11474) | -0.312 | -0.401 |
| EXOSC6_Q5RKV6_248_LGLEGCQR (UniProt Q5RKV6) | -0.00681 | 0.0231 |
| FAM120A_Q9NZB2_919_VAAASGHCGAFSGSDSSR (UniProt Q9NZB2) | -0.383 | -0.344 |
| FAM122A_Q96E09_193_SQSPINCIRPSVLGPLK (UniProt Q96E09) | -0.132 | -0.161 |
| ERO1A_Q96HE7_104_DCAVKPCQSDEVPDGIK (UniProt Q96HE7) | -0.198 | 0.0779 |
| ERO1A_Q96HE7_94_RPCPFWNDISQCGR (UniProt Q96HE7) | 0.0634 | 0.456 |
| FAM129A_Q9BZQ8_177_HGYFCFHEAADQKR (UniProt Q9BZQ8) | -0.0348 | -0.256 |
| EXOSC8_Q96B26_60_LGNTTVICGVK (UniProt Q96B26) | 0.108 | 0.0539 |
| EXOSC9_Q06265_61_VLGQVSCELVSPK (UniProt Q06265) | 0.171 | 0.0301 |
| FAF2_Q96CS3_194_NTLCAPEVISLINTR (UniProt Q96CS3) | -0.00497 | 0.0786 |
| EXOC1_Q9NV70_304_GIEACTNAADALLQCMNVALRPGHDLLLAVK (UniProt Q9NV70) | 0.164 | 0.203 |
| FAM120B_Q96EK7_700_LDTLLACFNLSSSR (UniProt Q96EK7) | 0.24 | 0.346 |
| F8A3_P23610_110_LVCPAAYGEPLQAAASALGAAVR (UniProt P23610) | -0.0254 | 0.113 |
| EURL_Q9NYK6_112_DLDSDSECSK (UniProt Q9NYK6) | -0.23 | -0.887 |

Copied from above (4 entries):

| Target | probe-labelled cysteine peptide fold change (10 µM) | probe-labelled cysteine peptide fold change (50 µM) |
| --- | --- | --- |
| EXOC6_Q8TAG9_561_KPHIGLTELVQIIINTTHLEQACK (UniProt Q8TAG9) | 0.0168 | 0.367 |
| F2_P00734_564_GDACEGDSGGPFVMK (UniProt P00734) | -0.358 | -0.6 |
| ESRRA_P11474_46_CLPGHKEEEDGEGAGPGEQGGGK (UniProt P11474) | -0.312 | -0.401 |
| EXOSC6_Q5RKV6_248_LGLEGCQR (UniProt Q5RKV6) | -0.00681 | 0.0231 |

Remaining list, next part.

| Target | probe-labelled cysteine peptide fold change (10 µM) | probe-labelled cysteine peptide fold change (50 µM) |
| --- | --- | --- |
| FAF2_Q96CS3_211_MLFWACSTNKPEGYR (UniProt Q96CS3) | -0.0536 | -0.0175 |
| EXOC7_Q9UPT5-2_285_RPGRDDMLDVETDAYIHCVSAFVK (UniProt Q9UPT5) | 0.0993 | 0.0266 |
| F2_P00734_564_RGDACEGDSGGPFVMK (UniProt P00734) | -0.124 | -0.158 |
| FAH_P16930_315_GEGMSQAATICK (UniProt P16930) | 0.0705 | 0.12 |
| ERGIC3_Q9Y282_155_CCNTCEDVR (UniProt Q9Y282) | 0.0999 | 0.0761 |
| ETF1_P62495_302_YCFGVEDTLK (UniProt P62495) | 0.229 | 0.192 |
| FAM120A_Q9NZB2_669_SPQTPELVEALAFREWTCPNLK (UniProt Q9NZB2) | -0.244 | -0.568 |
| EZH2_Q15910_286_EQSLHSFHTLFCR (UniProt Q15910) | 0.036 | 0.0157 |
| EXOSC10_Q01780_612_LENVLFGPHDCSHAPPDGYPIIPTSGSVPVQK (UniProt Q01780) | 0.124 | -0.114 |
| EXOSC9_Q06265_232_HREICTIQSSGGIMLLK (UniProt Q06265) | -0.0954 | -0.14 |
| FAH_P16930_105_CAFISQASATMHLPATIGDYTDFYSSR (UniProt P16930) | 0.0468 | -0.0356 |
| FAH_P16930_396_FLLDGDEVIITGYCQGDGYR (UniProt P16930) | -0.176 | -0.00781 |
| FAM111B_Q6SJ93_351_NYYFCSLPR (UniProt Q6SJ93) | -0.123 | -0.127 |
| FABP5_Q01469_47_KMGAMAKPDCIITCDGK (UniProt Q01469) | -0.0679 | -0.804 |
| EXOC6_Q8TAG9_28_ILQEIESTDTACVGPTLR (UniProt Q8TAG9) | -0.22 | 0.176 |
| EXOC1_Q9NV70_650_CISNQIR (UniProt Q9NV70) | -0.0212 | -0.257 |
| ERP44_Q9BS26_318_TPADCPVIAIDSFR (UniProt Q9BS26) | -0.00107 | 0.308 |
| ESF1_Q9H501_462_IYEDCDGLEFESSCSFIDLR (UniProt Q9H501) | -0.0684 | 0.0687 |
| ETFB_P38117_66+71_EVIAVSCGPAQCQETIR (UniProt P38117) | 0.0324 | -0.188 |
| FAM120A_Q9NZB2_53_LLVDADNCLHR (UniProt Q9NZB2) | 0.128 | 0.139 |
| ERCC6L_Q2NKX8_411_LCDHPR (UniProt Q2NKX8) | 0.205 | 0.587 |

| Target | probe-labelled cysteine peptide fold change (10 µM) | probe-labelled cysteine peptide fold change (50 µM) |
| --- | --- | --- |
| FAM120B_Q96EK7_547_LEALMCTNPEIK (UniProt Q96EK7) | -0.253 | 0.187 |
| EZR_P15311_284_ILQLCMGNHELYMR (UniProt P15311) | 0.0146 | 0.00653 |
| ESD_P10768_45+56_CPALYWLSGLTCTEQNFISK (UniProt P10768) | 0.119 | -0.309 |
| ERI1_Q8IV48_314_MLQDGCELR (UniProt Q8IV48) | -0.00467 | 0.151 |
| FAM126A_Q9BYI3_300_CIQVEITPTSSR (UniProt Q9BYI3) | 0.144 | -0.281 |
| ERP29_P30040_157_GQGVYLGMPGCLPVYDALAGEFIR (UniProt P30040) | 0.0186 | -0.0623 |
| FAF2_Q96CS3_189_FLLVYLHGDDHQDSDEFCR (UniProt Q96CS3) | 0.0394 | 0.0993 |
| ERH_P84090_33_TYADYESVNECMEGVCK (UniProt P84090) | 0.039 | -0.0155 |
| F13A1_P00488_410_CGPASVQAIK (UniProt P00488) | -0.223 | -0.133 |
| FABP5_Q01469_47_MGAMAKPDCIITCDGK (UniProt Q01469) | -0.0509 | -0.447 |
| ERMP1_Q7Z2K6_204+222_DGAQHAVLANCHFDSVANSPGASDDAVSCSVMLEVLR (UniProt Q7Z2K6) | -0.0802 | 0.128 |
| EXOSC1_Q9Y3B2_40_HGYIFSSLAGCLMK (UniProt Q9Y3B2) | 0.118 | -0.0583 |
| EXOSC1_Q9Y3B2_15_LCNLEEGSPGSGTYTR (UniProt Q9Y3B2) | 0.107 | -0.0608 |
| FAM126A_Q9BYI3_57_VIQEPQSELLEPVCHQLFEFYR (UniProt Q9BYI3) | 0.156 | 0.076 |
| F2_P00734_407_WVLTAAHCLLYPPWDK (UniProt P00734) | -0.487 | -0.615 |
| FAF2_Q96CS3_349_KLECLPPEPSPDDPESVK (UniProt Q96CS3) | -0.0728 | 0.0455 |
| F11R_Q9Y624_50_LSCAYSGFSSPR (UniProt Q9Y624) | -0.082 | -0.2 |
| F11R_Q9Y624_74_LVCYNNK (UniProt Q9Y624) | -0.135 | -0.355 |
| ETFDH_Q16134_266_ANCEPQTYGIGLK (UniProt Q16134) | 0.0188 | 0.134 |
| EXOSC1_Q9Y3B2_73_ETESQLLPDVGAIVTCK (UniProt Q9Y3B2) | -0.0568 | 0.13 |
